Source: the supplement of paper PMC10849652
The other results are listed elsewhere or left out.

By UniProt entry, the sequences of proteins in these tests, tags left out. Where a name states a change or a piece, a line headed by the entry shows the natural chain unless it says otherwise.
UniProt P02511: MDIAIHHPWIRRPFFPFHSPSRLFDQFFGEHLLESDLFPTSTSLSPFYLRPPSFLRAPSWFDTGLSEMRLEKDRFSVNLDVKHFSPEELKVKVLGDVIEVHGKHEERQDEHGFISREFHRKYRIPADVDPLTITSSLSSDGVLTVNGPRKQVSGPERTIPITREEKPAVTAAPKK
UniProt Q14019: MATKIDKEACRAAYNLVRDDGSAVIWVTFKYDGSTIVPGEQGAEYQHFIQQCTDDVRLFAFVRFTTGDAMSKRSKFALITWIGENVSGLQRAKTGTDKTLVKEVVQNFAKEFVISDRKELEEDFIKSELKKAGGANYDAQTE
UniProt Q7Z4G1, whole entry, looked up: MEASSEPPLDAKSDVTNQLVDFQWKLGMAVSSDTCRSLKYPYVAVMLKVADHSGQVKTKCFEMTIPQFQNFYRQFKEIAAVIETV
UniProt Q92905, whole entry, looked up: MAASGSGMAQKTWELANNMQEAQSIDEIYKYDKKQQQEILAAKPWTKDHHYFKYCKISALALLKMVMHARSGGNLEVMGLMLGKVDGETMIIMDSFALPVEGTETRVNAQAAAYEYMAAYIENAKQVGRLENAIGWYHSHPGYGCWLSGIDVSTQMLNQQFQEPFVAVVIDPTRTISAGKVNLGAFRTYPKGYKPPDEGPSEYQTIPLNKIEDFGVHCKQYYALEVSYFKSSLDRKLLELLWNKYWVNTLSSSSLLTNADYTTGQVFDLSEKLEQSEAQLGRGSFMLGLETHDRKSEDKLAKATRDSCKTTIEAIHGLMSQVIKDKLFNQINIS
UniProt P14406, whole entry, looked up: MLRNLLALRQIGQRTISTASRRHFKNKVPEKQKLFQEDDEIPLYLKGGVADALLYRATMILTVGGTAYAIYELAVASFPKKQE
UniProt P12111: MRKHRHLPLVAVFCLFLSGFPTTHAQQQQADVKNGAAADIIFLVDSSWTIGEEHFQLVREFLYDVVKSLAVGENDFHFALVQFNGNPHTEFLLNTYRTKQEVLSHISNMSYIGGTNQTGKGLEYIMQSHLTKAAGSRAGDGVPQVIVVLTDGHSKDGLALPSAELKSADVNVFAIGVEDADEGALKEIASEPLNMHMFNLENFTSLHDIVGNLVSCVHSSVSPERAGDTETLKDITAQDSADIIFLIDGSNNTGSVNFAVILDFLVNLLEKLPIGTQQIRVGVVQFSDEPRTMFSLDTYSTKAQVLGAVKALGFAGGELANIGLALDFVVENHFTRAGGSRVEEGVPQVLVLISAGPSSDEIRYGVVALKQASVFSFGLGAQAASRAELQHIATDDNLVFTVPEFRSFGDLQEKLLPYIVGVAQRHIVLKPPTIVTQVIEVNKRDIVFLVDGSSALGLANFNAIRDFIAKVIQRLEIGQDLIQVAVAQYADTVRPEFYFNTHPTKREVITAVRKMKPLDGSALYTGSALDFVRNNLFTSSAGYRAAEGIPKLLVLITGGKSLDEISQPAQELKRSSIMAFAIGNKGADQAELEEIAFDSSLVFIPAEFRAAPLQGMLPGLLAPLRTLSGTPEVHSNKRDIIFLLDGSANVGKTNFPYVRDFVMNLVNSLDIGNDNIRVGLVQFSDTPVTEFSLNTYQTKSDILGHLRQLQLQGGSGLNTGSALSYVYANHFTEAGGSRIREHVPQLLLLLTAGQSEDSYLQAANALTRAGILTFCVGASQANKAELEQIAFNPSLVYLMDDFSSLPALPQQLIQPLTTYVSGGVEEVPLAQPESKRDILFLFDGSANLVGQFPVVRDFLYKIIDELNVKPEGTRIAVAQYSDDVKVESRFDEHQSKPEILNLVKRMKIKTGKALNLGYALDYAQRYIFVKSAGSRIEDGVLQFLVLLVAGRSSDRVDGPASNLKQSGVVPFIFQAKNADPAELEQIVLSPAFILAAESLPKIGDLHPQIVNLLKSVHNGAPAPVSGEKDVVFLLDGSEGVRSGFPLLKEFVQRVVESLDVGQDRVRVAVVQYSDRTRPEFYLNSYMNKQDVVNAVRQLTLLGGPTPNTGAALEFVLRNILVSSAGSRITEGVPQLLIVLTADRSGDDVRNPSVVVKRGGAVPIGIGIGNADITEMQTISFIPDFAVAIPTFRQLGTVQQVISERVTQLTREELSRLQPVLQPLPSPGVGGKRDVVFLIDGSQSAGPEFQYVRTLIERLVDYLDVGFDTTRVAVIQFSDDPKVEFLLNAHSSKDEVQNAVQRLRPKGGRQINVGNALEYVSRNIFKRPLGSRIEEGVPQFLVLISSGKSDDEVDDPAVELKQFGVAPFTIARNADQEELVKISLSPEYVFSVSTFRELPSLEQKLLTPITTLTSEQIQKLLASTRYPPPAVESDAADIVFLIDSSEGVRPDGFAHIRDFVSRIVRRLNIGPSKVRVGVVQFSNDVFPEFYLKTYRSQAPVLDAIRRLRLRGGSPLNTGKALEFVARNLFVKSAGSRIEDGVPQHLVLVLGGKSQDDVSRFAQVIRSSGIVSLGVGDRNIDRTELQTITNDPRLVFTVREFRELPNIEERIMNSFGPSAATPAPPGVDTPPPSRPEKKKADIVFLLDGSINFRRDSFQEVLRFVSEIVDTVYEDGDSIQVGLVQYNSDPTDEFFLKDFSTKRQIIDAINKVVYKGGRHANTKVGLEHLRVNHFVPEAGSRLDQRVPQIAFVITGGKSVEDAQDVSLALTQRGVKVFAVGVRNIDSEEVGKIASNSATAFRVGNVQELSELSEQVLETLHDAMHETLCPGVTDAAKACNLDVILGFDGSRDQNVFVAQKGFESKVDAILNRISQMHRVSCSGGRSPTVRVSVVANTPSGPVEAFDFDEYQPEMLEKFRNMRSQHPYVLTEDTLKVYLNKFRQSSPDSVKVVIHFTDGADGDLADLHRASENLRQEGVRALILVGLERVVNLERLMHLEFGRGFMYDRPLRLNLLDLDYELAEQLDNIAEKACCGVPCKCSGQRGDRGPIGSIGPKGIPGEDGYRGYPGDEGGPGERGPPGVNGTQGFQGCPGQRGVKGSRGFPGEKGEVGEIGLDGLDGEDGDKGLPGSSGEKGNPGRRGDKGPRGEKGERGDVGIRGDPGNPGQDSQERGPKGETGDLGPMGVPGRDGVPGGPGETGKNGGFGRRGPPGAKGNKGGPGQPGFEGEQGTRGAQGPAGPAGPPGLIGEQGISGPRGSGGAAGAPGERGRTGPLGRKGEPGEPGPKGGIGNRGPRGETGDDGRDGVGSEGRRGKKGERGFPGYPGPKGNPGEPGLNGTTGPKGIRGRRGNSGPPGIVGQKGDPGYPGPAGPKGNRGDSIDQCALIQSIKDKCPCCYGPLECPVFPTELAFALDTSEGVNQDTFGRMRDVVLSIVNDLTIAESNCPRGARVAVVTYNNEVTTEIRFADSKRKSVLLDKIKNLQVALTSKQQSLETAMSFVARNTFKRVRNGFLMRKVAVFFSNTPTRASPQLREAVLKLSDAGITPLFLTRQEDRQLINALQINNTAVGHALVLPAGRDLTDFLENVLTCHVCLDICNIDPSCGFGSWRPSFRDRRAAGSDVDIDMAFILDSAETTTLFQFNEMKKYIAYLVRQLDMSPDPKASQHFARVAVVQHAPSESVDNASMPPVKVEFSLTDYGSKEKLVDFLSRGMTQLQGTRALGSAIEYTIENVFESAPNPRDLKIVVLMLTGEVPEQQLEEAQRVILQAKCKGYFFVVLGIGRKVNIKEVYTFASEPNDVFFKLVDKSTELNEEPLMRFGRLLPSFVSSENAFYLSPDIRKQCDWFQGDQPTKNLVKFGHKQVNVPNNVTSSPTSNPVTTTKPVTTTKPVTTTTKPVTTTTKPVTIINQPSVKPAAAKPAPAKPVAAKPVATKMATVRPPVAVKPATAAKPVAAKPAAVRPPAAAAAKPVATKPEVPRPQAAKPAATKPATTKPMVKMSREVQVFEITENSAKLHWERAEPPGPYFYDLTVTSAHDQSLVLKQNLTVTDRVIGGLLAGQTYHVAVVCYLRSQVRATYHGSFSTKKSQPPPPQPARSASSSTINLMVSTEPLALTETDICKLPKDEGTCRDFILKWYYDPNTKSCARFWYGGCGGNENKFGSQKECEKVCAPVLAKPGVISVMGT
UniProt O14548: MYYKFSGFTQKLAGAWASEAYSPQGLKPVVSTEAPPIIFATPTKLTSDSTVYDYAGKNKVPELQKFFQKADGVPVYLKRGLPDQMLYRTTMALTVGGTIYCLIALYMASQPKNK
UniProt Q9H0A8, whole entry, looked up: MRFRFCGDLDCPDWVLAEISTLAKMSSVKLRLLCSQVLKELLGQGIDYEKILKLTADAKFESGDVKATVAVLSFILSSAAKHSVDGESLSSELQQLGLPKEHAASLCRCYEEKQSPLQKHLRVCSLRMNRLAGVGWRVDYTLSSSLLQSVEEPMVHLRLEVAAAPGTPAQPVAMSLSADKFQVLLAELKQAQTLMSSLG
UniProt Q9UBI1, whole entry, looked up: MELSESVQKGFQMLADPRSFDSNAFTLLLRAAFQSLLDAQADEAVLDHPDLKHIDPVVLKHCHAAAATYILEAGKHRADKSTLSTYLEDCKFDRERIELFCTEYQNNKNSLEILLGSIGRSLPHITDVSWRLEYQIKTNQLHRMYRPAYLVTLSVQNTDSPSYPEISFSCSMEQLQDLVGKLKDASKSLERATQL
UniProt Q8N752: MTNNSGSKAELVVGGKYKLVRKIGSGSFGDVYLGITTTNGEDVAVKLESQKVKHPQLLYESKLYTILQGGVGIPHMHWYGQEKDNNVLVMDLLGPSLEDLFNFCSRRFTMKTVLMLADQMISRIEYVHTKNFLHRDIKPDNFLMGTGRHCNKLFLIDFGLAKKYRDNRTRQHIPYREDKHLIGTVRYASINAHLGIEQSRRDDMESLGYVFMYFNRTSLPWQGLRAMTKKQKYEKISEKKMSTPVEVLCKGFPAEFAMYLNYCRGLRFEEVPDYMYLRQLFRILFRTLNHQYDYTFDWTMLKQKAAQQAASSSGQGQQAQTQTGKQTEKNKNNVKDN
UniProt Q9ULV4, whole entry, looked up: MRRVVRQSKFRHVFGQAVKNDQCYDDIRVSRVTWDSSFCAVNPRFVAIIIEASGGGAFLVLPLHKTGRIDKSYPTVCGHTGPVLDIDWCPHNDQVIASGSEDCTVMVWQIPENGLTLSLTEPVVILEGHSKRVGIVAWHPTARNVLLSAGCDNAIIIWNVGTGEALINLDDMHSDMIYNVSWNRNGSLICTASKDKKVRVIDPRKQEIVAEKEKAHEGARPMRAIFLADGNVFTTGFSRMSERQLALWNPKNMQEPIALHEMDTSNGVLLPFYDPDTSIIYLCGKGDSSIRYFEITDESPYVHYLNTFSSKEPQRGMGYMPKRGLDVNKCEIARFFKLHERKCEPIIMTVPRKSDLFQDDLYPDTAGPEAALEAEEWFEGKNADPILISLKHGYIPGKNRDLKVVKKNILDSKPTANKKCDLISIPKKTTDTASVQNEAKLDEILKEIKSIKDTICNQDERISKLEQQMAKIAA
UniProt Q9P2I0: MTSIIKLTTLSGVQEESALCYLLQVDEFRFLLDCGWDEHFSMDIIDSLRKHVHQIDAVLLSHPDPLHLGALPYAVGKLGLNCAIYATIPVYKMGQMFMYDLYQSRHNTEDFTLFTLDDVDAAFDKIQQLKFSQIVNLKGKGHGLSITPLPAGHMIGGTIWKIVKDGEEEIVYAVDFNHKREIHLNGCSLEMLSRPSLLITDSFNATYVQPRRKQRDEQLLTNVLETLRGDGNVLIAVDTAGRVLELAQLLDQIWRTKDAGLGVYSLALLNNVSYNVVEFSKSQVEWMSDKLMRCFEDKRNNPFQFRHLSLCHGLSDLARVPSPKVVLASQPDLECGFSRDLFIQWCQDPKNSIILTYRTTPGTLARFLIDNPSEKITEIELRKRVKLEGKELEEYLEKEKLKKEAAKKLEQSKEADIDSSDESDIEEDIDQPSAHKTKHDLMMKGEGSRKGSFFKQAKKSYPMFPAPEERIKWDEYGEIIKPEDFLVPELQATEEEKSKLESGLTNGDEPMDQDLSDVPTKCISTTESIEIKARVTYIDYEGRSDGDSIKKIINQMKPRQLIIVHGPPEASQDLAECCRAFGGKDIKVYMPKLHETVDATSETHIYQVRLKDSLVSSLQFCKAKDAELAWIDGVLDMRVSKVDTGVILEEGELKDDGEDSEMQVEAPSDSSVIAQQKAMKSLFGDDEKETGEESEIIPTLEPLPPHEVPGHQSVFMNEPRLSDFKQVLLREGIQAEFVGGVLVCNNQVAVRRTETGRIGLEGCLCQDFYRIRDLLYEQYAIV
UniProt Q8N8Q8: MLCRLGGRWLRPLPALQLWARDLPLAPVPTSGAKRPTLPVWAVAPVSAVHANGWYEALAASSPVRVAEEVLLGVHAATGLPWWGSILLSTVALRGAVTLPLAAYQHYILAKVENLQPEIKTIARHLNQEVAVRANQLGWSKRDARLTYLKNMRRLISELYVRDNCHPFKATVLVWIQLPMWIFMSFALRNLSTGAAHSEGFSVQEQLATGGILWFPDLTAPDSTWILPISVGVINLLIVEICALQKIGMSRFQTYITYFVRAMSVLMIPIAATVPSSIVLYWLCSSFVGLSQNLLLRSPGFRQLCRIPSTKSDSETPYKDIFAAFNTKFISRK
UniProt P13073, whole entry, looked up: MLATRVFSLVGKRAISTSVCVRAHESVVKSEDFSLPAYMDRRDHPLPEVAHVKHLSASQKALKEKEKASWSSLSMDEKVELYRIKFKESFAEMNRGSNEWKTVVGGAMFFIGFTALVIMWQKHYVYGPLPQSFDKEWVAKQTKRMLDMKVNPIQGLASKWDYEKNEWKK

Each target was assayed with c1cn2cc(-c3ccc4cn[nH]c4c3)nc(Nc3ccc(N4CCOCC4)cc3)c2n1 [entospletinib] (assay: log2 fold change, soluble protein after heating vs DMSO (PISA); higher = thermal stabilisation; K562 cells, 10 uM, 30 min; active = over 0.2 and 3.5 SD of the protein, either way, in both replicates (recomputed)).
Summary of the method: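 Aliquots of K562 cells (2×10^6 cells/mL) treated with 10 μM compound for 30 min were heated for 3 min over 48°C-58°C. After pooling and extraction in PBS with 0.5% NP-40 at 4°C, soluble protein from a 21,000xg, 90 min spin was quantified by TMTpro 16plex LC-MS/MS with channel sums equalised. Thermal stability is expressed against control samples, from duplicates, as a log2 fold change.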

log2 fold change, inactive:
CRYAB (UniProt P02511) -0.037
COTL1 (UniProt Q14019) -0.013
COMMD6 isoform 2 (UniProt Q7Z4G1) -0.035
COPS5 (UniProt Q92905) -0.042
COX11 (UniProt Q9Y6N1) -0.033
COPS2 (UniProt P61201) -0.014
COX7A2 (UniProt P14406) 0.049
CPPED1 (UniProt Q9BRF8) -0.028
COL6A3 (UniProt P12111) 0.058
COX7A2L (UniProt O14548) 0.033
CPED1 (UniProt A4D0V7) -0.037
COMMD4 (UniProt Q9H0A8) -0.103
COMMD3 (UniProt Q9UBI1) 0.049
CRPPA (UniProt A4D126) 0.031
CRBN (UniProt Q96SW2) -0.009
CSNK1A1L (UniProt Q8N752) -0.014
CREBBP (UniProt Q92793) -0.03
CPEB4 (UniProt Q17RY0) -0.04
CSDE1 isoform 4 (UniProt O75534) 0.172
CREG1 (UniProt O75629) 0.07
CREB1 (UniProt P16220) 0.017
COX14 (UniProt Q96I36) 0.042
CORO1C isoform 3 (UniProt Q9ULV4) -0.074
CRTAP (UniProt O75718) 0.04
CPSF2 (UniProt Q9P2I0) -0.052
COX18 (UniProt Q8N8Q8) 0.036
COX4I1 (UniProt P13073) 0.003

2 successive records out of the list so far, for reference:
log2 fold change, inactive:
COX7A2L (UniProt O14548) 0.033
CPED1 (UniProt A4D0V7) -0.037
